Assay results from PMC11058652.
Results are given in words; binding and its absence hold for the method and conditions named. In cells and extracts the contact can be indirect. Some results given as binding are weak or reduced against the parent protein; the word gives no strength.

Tests used:
[1] = target: HA-tagged HTLV-1 Tax (HTLV-1) (UniProt P03409); test: co-IP; HEK293T co-transfected with HA-Tax and Flag-PCBP1 for 24 h; RIPA lysate; IP with HA antibody and Protein G agarose; blot with HA and Flag antibodies
[2] = target: Flag-tagged Poly (rC)-binding protein 1, full length (human) (UniProt Q15365); test: co-IP; PCBP1 with Tax WT, M22 and M47; details only in Supplementary Figure 3 (not shown)
[3] = target: Flag-tagged Poly (rC)-binding protein 1, full length (human) (UniProt Q15365); test: co-IP; HEK293T co-transfected with HA-Tax and Flag-PCBP1 for 24 h; RIPA lysate; IP with Flag antibody and Protein G agarose; blot with HA and Flag antibodies
[4] = target: Poly (rC)-binding protein 1, endogenous in HTLV-1-transformed cells (human (endogenous in MT2 and MT4)) (UniProt Q15365); test: co-IP; endogenous proteins; lysates of MT2 and MT4 cells; IP with PCBP1 antibody or IgG and Protein G; blots for Tax and PCBP1 (MT2, MT4) and for IKKα and IKKβ (MT2)
[5] = target: HA-tagged HTLV-1 Tax (HTLV-1) (UniProt P03409); test: co-IP; HEK293T transfected with HA-Tax, with or without Flag-PCBP1, or HEK293T stably expressing shNC or shPCBP1 transfected with HA-Tax; IP with HA antibody and Protein G; blots for endogenous IKKα, IKKβ and NEMO

Q: How did the binding [1] turn out when “Flag-tagged Poly (rC)-binding protein 1, full length (from UniProt Q15365 1-356)” was run?
A: binds

Q: Which binding [2] does the source give for “HA-tagged HTLV-1 Tax (from UniProt P03409 1-353)” here?
A: binds

Q: What about the binding [3] of the same molecule?
A: binds

Q: “HTLV-1 Tax, endogenous in HTLV-1-transformed cells (from UniProt P03409 1-353)” was tested. Which binding [4] did it give?
A: binds

Q: “NEMO, endogenous (from UniProt Q9Y6K9 1-419)” was tested. Which binding [5] did it give?
A: binds

B1: IKKβ, endogenous (protein, UniProt O14920 1-756)
chain: MSWSPSLTTQTCGAWEMKERLGTGGFGNVIRWHNQETGEQIAIKQCRQELSPRNRERWCLEIQIMRRLTHPNVVAARDVPEGMQNLAPNDLPLLAMEYCQGGDLRKYLNQFENCCGLREGAILTLLSDIASALRYLHENRIIHRDLKPENIVLQQGEQRLIHKIIDLGYAKELDQGSLCTSFVGTLQYLAPELLEQQKYTVTVDYWSFGTLAFECITGFRPFLPNWQPVQWHSKVRQKSEVDIVVSEDLNGTVKFSSSLPYPNNLNSVLAERLEKWLQLMLMWHPRQRGTDPTYGPNGCFKALDDILNLKLVHILNMVTGTIHTYPVTEDESLQSLKARIQQDTGIPEEDQELLQEAGLALIPDKPATQCISDGKLNEGHTLDMDLVFLFDNSKITYETQISPRPQPESVSCILQEPKRNLAFFQLRKVWGQVWHSIQTLKEDCNRLQQGQRAAMMNLLRNNSCLSKMKNSMASMSQQLKAKLDFFKTSIQIDLEKYSEQTEFGITSDKLLLAWREMEQAVELCGRENEVKLLVERMMALQTDIVDLQRSPMGRKQGGTLDDLEEQARELYRRLREKPRDQRTEGDSQEMVRLLLQAIQSFEKKVRVIYTQLSKTVVCKQKALELLPKVEEVVSLMNEDEKTVVRLQEKRQKELWNLLKIACSKVRGPVSGSPDSMNASRLSQPGQLMSQPSTASNSLPEPAKKSEELVAEAHNLCTLLENAIQDTVREQDQSFTALDWSWLQTEEEEHSCLEQAS
Q: Which binding [5] does the source give for B1 here?
A: binds
